From patent publication US9029095B2, “Method and kits for determining platelet susceptibility to activation in a patient” (Institut National de la Sante et de la Recherche Medicale …, priority 2010, dated 2015) come the findings set out here.

Structures are written as SMILES.

In the experiment the test system is GPVI dimerization on platelets. Briefly: Effect of agonists and inhibitors on 9E18 binding to platelets (GPVI dimerization), flow cytometry. The format is cell-based, human. Background: A flow cytometer gives signals particle by particle.

Regarding `CN[C@@H]1C[C@H]2O[C@@](C)([C@@H]1OC)n1c3ccccc3c3c4c(c5c6ccccc6n2c5c31)C(=O)NC4` [staurosporine], the “inhibition of 9E18 binding to activated platelets” value is “more than 2 fold”.
